Earlier results, collected in patent US20040138296A1, “Amyloid immunization and Cox-2 inhibitors for the treatment of alzheimer's disease” (Pharmacia Corporation, priority 2002, published 2004).

Tested on: AD patients

SMILES: COc1cc2c(cc1OC)C(=O)C(CC1CCN(Cc3ccccc3)CC1)C2 (stereo not shown) [Donepezil]
- hepatotoxicity: almost no hepatotoxicity
